Here are results for 5 molecules from paper PMC7305330.

Protein sequences, listed by entry. Tags and fused reporters are not part of them.
UniProt P22147: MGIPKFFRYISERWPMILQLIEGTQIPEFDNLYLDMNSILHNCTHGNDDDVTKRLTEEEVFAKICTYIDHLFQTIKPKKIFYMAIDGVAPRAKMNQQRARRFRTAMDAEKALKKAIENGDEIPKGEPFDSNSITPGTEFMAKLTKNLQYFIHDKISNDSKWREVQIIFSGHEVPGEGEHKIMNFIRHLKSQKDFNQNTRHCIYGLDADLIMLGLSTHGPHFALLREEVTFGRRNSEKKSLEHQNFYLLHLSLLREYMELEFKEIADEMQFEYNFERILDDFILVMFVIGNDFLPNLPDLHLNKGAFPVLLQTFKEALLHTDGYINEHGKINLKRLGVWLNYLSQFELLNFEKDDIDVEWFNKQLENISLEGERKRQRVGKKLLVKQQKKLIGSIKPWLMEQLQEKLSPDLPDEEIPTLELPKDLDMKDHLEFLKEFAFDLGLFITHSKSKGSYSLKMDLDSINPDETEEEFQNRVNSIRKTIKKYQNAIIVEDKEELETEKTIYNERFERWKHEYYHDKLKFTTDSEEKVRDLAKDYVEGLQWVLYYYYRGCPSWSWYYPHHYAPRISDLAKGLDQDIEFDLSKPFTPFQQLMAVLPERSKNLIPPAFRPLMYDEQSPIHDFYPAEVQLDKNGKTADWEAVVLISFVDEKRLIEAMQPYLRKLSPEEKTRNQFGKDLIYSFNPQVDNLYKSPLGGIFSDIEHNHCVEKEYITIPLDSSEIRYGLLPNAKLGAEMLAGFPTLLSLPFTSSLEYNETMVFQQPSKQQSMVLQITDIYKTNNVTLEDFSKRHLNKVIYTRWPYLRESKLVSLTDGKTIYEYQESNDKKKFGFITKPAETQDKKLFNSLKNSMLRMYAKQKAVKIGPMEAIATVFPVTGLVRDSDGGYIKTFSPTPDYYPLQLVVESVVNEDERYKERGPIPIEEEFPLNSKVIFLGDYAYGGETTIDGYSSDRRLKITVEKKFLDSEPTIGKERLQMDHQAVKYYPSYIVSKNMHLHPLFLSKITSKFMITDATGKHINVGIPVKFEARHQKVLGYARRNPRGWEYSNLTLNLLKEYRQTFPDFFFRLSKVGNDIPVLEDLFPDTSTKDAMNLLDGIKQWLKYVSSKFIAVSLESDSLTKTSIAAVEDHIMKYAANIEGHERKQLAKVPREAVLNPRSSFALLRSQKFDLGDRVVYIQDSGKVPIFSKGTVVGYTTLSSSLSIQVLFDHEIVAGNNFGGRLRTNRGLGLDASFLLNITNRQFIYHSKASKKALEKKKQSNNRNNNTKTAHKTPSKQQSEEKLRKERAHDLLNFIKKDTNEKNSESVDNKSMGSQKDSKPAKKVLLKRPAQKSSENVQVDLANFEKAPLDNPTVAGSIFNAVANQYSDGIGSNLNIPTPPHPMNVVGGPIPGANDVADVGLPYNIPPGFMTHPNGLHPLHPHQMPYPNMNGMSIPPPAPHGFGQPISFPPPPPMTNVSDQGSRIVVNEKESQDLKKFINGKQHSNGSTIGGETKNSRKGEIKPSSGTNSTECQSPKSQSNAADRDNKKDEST

Like-named read-outs stand apart in the source and are kept apart here. No constants are given. Whether binding was seen depends on the method and setting. In cells and extracts the contact can be indirect. Here binding means that the protein was enriched with, or labelled near, the bait; the list need not be complete. For part of these data: A no says only that the protein was not detected with the bait.

Assay [1] has as its target T1, Air1 (S. cerevisiae (endogenous in strains derived from BY4741)) (UniProt P40507).
T1 sequence: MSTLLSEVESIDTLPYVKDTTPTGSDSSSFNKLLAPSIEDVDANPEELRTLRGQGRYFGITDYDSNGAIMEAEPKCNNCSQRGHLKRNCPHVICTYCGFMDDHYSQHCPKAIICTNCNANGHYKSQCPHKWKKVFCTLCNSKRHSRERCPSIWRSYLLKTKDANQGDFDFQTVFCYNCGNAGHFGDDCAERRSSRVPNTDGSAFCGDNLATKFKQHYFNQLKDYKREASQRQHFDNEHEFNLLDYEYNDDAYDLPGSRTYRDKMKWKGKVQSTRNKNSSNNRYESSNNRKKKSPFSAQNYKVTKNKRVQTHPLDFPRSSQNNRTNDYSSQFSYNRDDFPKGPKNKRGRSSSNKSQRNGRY
In words: affinity purification with mass spectrometry; tandem-affinity purification of C-terminally HTP-tagged bait (Air1, Air2, Trf4 or Trf5) from yeast extract under stringent conditions (1 M NaCl); LC-MS/MS, label-free quantification (iBAQ); non-tagged strain as negative control.

In assay [2] the target is T2, Air2 (S. cerevisiae (endogenous in strains derived from BY4741)) (UniProt Q12476).
T2 sequence: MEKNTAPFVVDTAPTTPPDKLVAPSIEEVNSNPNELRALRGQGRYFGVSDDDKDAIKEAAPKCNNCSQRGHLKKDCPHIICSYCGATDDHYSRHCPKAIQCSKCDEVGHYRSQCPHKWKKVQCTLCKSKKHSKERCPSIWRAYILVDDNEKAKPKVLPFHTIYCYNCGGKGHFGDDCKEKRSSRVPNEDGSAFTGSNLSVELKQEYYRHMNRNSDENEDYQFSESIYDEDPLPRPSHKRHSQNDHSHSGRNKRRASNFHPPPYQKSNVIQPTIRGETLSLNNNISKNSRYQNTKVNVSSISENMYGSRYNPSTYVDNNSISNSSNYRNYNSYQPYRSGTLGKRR
Described as above.

Assay [3] deals with T3, Trf4 (S. cerevisiae (endogenous in strains derived from BY4741)) (UniProt P53632).
T3 sequence: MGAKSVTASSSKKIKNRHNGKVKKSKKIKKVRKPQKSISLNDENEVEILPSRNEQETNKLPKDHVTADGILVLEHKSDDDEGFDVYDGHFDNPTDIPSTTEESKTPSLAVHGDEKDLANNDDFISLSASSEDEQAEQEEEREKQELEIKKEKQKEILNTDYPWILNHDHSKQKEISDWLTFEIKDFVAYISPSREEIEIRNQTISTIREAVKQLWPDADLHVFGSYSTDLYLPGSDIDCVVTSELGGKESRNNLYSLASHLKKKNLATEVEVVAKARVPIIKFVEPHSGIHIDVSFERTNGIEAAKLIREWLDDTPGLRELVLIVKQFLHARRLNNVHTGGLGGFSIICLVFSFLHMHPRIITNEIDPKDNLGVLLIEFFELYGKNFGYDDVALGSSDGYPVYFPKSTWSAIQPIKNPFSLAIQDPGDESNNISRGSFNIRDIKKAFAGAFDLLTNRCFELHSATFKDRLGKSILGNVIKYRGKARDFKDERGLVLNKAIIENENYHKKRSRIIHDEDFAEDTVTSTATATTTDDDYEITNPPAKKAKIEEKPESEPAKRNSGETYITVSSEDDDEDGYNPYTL
Description: affinity purification with mass spectrometry; purification of Trf4-HTP or Trf5-HTP from yeast extract at lower stringency (150 mM NaCl), without RNase treatment; enrichment (riBAQ ratio) against the non-tagged control, ratio <2 taken as not enriched.

Assay [4] deals with T1, Air1 (S. cerevisiae (endogenous in strains derived from BY4741)). In words: affinity purification with mass spectrometry; tandem-affinity purification of C-terminally HTP-tagged bait (Air1, Air2, Trf4 or Trf5) from yeast extract under stringent conditions (1 M NaCl); LC-MS/MS, label-free quantification (iBAQ); non-tagged strain as negative control. This is another data set of the same source.

The target of assay [5] is T2, Air2 (S. cerevisiae (endogenous in strains derived from BY4741)). The description is as above. This is another data set of the same source.
Assay [6] addresses T4, Trf5 (S. cerevisiae (endogenous in strains derived from BY4741)) (UniProt P48561).
T4 sequence: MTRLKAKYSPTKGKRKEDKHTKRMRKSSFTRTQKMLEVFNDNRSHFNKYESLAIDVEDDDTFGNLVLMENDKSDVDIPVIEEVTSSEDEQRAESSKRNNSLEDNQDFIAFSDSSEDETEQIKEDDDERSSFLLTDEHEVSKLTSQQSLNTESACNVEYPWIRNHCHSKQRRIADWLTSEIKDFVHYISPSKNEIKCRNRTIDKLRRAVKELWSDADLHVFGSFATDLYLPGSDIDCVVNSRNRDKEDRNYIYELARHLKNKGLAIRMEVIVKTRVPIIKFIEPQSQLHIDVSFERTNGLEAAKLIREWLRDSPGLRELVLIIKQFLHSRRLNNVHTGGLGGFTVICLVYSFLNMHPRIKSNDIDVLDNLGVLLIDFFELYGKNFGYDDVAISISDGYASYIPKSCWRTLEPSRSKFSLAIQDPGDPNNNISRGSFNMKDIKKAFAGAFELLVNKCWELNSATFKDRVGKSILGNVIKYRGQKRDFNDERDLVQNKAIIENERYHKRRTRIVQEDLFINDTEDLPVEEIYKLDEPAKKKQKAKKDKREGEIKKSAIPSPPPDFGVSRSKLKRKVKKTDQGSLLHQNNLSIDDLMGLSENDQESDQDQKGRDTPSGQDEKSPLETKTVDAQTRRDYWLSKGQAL
Description: affinity purification with mass spectrometry; purification of Trf4-HTP or Trf5-HTP from yeast extract at lower stringency (150 mM NaCl), without RNase treatment; enrichment (riBAQ ratio) against the non-tagged control, ratio <2 taken as not enriched.

For “Xrn1 (from UniProt P22147 1-1528) (enzyme)”, the binding entry in assay [1], in assay [2] and in assay [3] was “binds” throughout.

B1: Utp18 (protein, UniProt P40362 1-594)
chain: MTMATTAMNVSVPPPDEEEQLLAKFVFGDTTDLQENLAKFNADFIFNEQEMDVEDQEDEGSESDNSEEDEAQNGELDHVNNDQLFFVDDGGNEDSQDKNEDTMDVDDEDDSSSDDYSEDSEEAAWIDSDDEKIKVPILVTNKTKKLRTSYNESKINGVHYINRLRSQFEKIYPRPKWVDDESDSELDDEEDDEEEGSNNVINGDINALTKILSTTYNYKDTLSNSKLLPPKKLDIVRLKDANASHPSHSAIQSLSFHPSKPLLLTGGYDKTLRIYHIDGKTNHLVTSLHLVGSPIQTCTFYTSLSNQNQQNIFTAGRRRYMHSWDLSLENLTHSQTAKIEKFSRLYGHESTQRSFENFKVAHLQNSQTNSVHGIVLLQGNNGWINILHSTSGLWLMGCKIEGVITDFCIDYQPISRGKFRTILIAVNAYGEVWEFDLNKNGHVIRRWKDQGGVGITKIQVGGGTTTTCPALQISKIKQNRWLAVGSESGFVNLYDRNNAMTSSTPTPVAALDQLTTTISNLQFSPDGQILCMASRAVKDALRLVHLPSCSVFSNWPTSGTPLGKVTSVAFSPSGGLLAVGNEQGKVRLWKLNHY
As to B1, the binding entry in assay [4], in assay [5], in assay [3] and in assay [6] was “no binding” throughout.

B2: Nrd1 (protein, UniProt P53617 1-575)
chain: MQQDDDFQNFVATLESFKDLKSGISGSRIKKLTTYALDHIDIESKIISLIIDYSRLCPDSHKLGSLYIIDSIGRAYLDETRSNSNSSSNKPGTCAHAINTLGEVIQELLSDAIAKSNQDHKEKIRMLLDIWDRSGLFQKSYLNAIRSKCFAMDISNNTANTASQQLSLDPKQRSKQILSNLKKSPPLNLNISLPTDLTSTDPAKQQAALFQVIAALQKHFKTLPSHTSVGTVAPPQAHTITEYGSRRERERERERYNSRRNRSRSPPAPFSQPSTGRKDRYPSVAQDQYSIGAPNTTFGTNNHHLYPDELNVSNNPHYRPKPVSYDSTLPPDHIKVYSRTLFIGGVPLNMKEWDLANVLKPFAEVQSVILNNSRKHAFVKVYSRHEAENVLQNFNKDGALPLRTRWGVGFGPRDCCDYQHGYSIIPMHRLTDADKKWSVSAQWGGTSGQPLVTGIVFEEPDIIVGEGVSSKAISQKMPTDSGRNGPRSGKPNKSGSISSISPVPYGNAPLASPPPQQYVQPMMQQPYGYAPNQPLPSQGPAAAAPPVPQQQFDPTAQLNSLMNMLNQQQQQQQQS
Consider B2, for which the binding entry is on record as “binds” in assay [3] and “no binding” in assay [6].

B3: Nab3 (protein, UniProt P38996 1-802)
chain: MSDENHNSDVQDIPSPELSVDSNSNENELMNNSSADDGIEFDAPEEEREAEREEENEEQHELEDVNDEEEEDKEEKGEENGEVINTEEEEEEEHQQKGGNDDDDDDNEEEEEEEEDDDDDDDDDDDDEEEEEEEEEEGNDNSSVGSDSAAEDGEDEEDKKDKTKDKEVELRRETLEKEQKDVDEAIKKITREENDNTHFPTNMENVNYDLLQKQVKYIMDSNMLNLPQFQHLPQEEKMSAILAMLNSNSDTALSVPPHDSTISTTASASATSGARSNDQRKPPLSDAQRRMRFPRADLSKPITEEEHDRYAAYLHGENKITEMHNIPPKSRLFIGNLPLKNVSKEDLFRIFSPYGHIMQINIKNAFGFIQFDNPQSVRDAIECESQEMNFGKKLILEVSSSNARPQFDHGDHGTNSSSTFISSAKRPFQTESGDMYNDDNGAGYKKSRRHTVSCNIFVKRTADRTYAIEVFNRFRDGTGLETDMIFLKPRMELGKLINDAAYNGVWGVVLVNKTHNVDVQTFYKGSQGETKFDEYISISADDAVAIFNNIKNNRNNSRPTDYRAMSHQQNIYGAPPLPVPNGPAVGPPPQTNYYQGYSMPPPQQQQQQPYGNYGMPPPSHDQGYGSQPPIPMNQSYGRYQTSIPPPPPQQQIPQGYGRYQAGPPPQPPSQTPMDQQQLLSAIQNLPPNVVSNLLSMAQQQQQQPHAQQQLVGLIQSMQGQAPQQQQQQLGGYSSMNSSSPPPMSTNYNGQNISAKPSAPPMSHQPPPPQQQQQQQQQQQQQQQQPAGNNVQSLLDSLAKLQK
In the case of B3, the binding result is “binds” in assay [3] and “no binding” in assay [6].

B4: Nop53 (protein, UniProt Q12080 1-455)
chain: MAPTNLTKKPSQYKQSSRKGKKAWRKNIDLSDVEQYMEKKIDHEITHGTSDITSLQNDALFHVDVEGDEILKNKLIKRKQIKKVLKSKEILDAVKTNSKIAALNHHKNSSGNPNKIQGVSKHELKKLMALAGRVHGESKIKNRVAKDGLVKTTAGDLWGEESNSKKQKVKLPSGIKLDVEKKDQIPEELLKKSTTSWSTASVRPSTLDIEPIAVKEFTEIPHAGKSYNPNNKAWSELINKEYKEEKAREDERIALEKYKERIRHLMETLDDNEEEESSSNEEEEEEEEENENENESTQCSGSDKEIKLSINKPVKNKKKTKYQRNKAKRHEEKVKLQQELKELRQRVKDLEEVINSEETEILSAIESDSNKVKKSKKNKKHKLGTKYSVIDERLEIKFSDELSDSLRKLKPEGNLLYDTVRKLQSSGKVETRVPVRKGRKYKQKITEKWTHKDFK
B4: the binding entry in assay [4], in assay [5], in assay [3] and in assay [6] was “no binding” each time.
